Assay results as given in the supplement of paper PMC10849652.
The other results are listed elsewhere or left out.

Chains of the proteins cited; added tags and fusions are not shown. Lines headed by an entry give the natural chain unless they say otherwise; changes in a name come on top.
UniProt Q96AG4: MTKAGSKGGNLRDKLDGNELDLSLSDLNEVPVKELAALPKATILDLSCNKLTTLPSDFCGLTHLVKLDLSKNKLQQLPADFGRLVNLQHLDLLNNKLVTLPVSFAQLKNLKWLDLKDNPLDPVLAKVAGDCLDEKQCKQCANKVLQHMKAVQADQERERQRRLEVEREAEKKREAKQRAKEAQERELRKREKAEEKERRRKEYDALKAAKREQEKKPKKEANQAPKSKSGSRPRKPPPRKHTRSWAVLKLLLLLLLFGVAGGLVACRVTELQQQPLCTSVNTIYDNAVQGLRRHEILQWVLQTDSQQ
UniProt Q14693: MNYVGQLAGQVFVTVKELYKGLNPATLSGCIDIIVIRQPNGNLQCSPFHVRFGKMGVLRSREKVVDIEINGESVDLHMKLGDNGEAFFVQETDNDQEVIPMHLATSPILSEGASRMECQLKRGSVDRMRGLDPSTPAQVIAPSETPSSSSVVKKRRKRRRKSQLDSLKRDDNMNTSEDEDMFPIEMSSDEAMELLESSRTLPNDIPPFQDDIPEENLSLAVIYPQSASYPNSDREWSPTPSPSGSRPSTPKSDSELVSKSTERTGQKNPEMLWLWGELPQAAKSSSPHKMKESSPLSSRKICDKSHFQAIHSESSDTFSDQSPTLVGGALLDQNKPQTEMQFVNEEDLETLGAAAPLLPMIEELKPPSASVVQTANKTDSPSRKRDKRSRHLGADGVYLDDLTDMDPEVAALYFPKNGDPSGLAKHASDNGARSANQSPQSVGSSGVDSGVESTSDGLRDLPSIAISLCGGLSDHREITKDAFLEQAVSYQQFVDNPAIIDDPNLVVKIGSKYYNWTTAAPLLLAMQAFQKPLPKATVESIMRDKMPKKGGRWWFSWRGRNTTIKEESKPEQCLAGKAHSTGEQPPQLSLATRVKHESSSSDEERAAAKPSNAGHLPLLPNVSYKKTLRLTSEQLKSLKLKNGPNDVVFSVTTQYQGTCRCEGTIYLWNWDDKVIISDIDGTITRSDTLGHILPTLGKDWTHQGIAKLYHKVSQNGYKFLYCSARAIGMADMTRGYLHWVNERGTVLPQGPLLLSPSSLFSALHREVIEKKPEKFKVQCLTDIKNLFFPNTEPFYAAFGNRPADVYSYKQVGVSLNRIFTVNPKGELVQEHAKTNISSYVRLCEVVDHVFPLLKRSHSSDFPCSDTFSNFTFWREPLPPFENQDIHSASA
UniProt P30533, whole entry, looked up: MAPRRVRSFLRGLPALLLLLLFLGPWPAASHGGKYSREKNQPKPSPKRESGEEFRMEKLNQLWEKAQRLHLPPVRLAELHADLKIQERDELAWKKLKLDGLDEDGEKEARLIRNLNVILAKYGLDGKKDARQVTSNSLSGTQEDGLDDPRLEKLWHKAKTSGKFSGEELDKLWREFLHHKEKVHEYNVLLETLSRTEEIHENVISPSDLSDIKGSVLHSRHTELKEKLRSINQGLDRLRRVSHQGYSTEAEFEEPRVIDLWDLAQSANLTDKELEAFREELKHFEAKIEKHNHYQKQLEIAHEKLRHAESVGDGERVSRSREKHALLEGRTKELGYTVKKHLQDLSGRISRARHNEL
UniProt P48357: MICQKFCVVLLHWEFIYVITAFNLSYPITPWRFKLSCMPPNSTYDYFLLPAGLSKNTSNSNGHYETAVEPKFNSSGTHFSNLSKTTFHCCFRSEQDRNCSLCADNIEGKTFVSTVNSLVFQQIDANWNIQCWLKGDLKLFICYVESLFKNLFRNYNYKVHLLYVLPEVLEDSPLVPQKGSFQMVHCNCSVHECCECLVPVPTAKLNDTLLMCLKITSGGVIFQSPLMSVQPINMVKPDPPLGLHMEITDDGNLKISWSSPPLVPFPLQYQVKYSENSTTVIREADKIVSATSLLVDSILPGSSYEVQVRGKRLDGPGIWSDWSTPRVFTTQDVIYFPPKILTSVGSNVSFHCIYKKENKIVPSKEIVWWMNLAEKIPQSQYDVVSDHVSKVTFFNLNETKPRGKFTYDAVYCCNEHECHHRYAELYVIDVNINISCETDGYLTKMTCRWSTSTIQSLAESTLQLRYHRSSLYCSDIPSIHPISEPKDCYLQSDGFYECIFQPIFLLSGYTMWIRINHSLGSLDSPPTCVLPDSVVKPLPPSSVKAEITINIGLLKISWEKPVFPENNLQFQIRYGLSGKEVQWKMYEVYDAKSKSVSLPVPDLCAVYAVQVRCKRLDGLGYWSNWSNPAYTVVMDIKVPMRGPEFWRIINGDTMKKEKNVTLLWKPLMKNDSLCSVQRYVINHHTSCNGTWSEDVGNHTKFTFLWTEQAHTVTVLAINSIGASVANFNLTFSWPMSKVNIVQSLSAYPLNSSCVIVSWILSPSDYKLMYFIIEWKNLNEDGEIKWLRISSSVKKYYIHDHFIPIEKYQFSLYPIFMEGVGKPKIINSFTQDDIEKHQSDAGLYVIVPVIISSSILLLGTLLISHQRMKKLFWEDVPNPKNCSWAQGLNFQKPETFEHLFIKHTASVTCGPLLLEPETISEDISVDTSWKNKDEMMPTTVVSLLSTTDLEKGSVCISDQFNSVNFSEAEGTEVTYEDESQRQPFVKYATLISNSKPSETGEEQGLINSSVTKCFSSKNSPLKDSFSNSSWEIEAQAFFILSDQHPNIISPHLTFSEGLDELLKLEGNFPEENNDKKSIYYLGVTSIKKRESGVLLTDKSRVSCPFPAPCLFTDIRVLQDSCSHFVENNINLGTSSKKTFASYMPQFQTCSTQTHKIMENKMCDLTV
UniProt Q9BU23: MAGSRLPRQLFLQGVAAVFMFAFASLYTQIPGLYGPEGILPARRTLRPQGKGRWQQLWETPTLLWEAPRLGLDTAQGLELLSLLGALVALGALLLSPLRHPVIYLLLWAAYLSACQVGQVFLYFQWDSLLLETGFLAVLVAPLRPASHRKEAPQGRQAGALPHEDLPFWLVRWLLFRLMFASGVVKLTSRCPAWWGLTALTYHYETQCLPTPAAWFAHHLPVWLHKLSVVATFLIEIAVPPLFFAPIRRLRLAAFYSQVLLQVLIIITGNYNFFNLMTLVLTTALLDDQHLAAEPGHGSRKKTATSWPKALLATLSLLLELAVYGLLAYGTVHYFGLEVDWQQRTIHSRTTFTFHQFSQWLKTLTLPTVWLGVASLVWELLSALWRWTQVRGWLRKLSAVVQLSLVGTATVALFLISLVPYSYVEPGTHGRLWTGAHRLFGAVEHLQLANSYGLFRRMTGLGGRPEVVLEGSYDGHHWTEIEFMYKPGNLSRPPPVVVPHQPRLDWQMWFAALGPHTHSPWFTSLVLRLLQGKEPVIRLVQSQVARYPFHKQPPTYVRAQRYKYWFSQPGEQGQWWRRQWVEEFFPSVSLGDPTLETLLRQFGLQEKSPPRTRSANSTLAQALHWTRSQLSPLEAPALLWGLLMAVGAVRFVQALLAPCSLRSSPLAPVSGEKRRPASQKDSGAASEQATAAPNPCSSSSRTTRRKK
UniProt Q9H9A6: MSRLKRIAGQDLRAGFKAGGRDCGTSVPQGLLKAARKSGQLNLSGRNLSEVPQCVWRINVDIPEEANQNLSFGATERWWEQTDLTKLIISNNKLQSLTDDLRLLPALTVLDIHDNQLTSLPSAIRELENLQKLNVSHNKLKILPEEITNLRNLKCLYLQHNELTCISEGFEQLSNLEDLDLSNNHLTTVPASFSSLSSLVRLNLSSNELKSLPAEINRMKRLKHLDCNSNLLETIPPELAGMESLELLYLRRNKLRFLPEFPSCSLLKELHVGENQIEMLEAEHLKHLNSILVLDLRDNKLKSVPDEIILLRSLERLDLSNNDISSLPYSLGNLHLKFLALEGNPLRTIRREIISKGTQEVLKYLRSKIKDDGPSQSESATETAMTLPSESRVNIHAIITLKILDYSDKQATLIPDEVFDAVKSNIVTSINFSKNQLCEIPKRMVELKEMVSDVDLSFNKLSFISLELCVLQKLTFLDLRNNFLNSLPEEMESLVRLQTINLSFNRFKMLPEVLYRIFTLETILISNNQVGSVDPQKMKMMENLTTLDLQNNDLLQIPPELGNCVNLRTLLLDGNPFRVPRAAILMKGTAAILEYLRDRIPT
UniProt Q86WA8: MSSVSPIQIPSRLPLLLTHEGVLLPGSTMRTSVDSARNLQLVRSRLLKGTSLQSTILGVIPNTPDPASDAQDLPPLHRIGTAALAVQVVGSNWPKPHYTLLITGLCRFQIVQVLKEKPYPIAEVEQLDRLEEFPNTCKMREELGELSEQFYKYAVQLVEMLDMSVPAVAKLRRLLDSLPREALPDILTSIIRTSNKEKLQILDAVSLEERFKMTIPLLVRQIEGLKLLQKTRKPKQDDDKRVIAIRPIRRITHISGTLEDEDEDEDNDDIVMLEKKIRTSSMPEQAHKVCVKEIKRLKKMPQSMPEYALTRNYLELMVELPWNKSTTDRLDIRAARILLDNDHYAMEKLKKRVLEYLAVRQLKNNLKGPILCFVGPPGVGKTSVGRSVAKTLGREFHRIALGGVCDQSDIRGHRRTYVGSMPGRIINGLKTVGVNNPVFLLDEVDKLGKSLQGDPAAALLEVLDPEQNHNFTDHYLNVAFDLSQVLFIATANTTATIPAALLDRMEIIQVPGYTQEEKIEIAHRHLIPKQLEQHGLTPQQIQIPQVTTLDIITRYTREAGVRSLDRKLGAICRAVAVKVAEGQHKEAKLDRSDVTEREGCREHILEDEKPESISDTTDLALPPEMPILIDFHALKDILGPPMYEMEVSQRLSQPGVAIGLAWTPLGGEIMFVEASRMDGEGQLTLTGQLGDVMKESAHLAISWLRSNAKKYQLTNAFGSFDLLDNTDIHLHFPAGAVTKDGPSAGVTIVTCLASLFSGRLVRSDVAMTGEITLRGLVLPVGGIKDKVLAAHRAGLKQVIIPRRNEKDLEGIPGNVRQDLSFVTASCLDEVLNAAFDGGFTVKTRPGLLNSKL
UniProt Q9UFC0: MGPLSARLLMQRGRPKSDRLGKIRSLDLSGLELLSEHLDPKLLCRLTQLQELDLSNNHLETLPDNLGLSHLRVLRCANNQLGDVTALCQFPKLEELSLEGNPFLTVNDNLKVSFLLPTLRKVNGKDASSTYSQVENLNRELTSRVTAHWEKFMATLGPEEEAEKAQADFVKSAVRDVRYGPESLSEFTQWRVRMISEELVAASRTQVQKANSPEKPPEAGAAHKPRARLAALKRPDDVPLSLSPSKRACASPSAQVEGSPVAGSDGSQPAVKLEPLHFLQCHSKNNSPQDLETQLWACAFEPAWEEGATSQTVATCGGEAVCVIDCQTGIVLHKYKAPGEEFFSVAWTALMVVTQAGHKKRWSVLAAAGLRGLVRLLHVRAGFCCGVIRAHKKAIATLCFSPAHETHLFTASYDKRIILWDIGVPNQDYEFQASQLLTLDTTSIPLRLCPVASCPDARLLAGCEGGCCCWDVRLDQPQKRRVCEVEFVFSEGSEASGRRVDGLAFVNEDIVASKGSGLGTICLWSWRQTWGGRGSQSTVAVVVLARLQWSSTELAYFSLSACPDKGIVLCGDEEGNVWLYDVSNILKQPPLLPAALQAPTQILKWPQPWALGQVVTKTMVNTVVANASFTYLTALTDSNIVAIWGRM
UniProt Q9BRT6: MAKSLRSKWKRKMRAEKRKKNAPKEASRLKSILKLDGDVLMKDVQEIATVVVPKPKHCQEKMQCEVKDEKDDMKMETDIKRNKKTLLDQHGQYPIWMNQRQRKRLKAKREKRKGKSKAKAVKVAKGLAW

Columns and labels:
Experiment in all cases: log2 fold change, soluble protein after heating vs DMSO (PISA); higher = thermal stabilisation; K562 lysate, 10 uM; active = over 0.2 and 3.5 SD of the protein, either way, in both replicates (recomputed)
[1] = compound: NCC(=O)Nc1ccc(-n2nc(C(F)(F)F)cc2-c2ccc3c(ccc4ccccc43)c2)cc1
Outline: (§1)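 Pellets of K562 cells were dounce-homogenised in PBS pH 7.4 with 1 mM MgCl2, and the crude extract was held at 1 mg/mL protein for a 30 min treatment with 10 μM compound. Aliquots were heated for 3 min over 48°C-58°C and pooled before NP-40 was added to 0.5% at 4°C. The supernatant from 21,000xg for 90 min was quantified by TMTpro 16plex LC-MS/MS with channel sums equalised. Values are reported from duplicates as log-two fold change in thermal stability relative to solvent controls.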

vorinostat = compound: O=C(CCCCCCC(=O)Nc1ccccc1)NO [vorinostat]
Outline: as §1

silmitasertib = compound: O=C(O)c1ccc2c(c1)nc(Nc1cccc(Cl)c1)c1ccncc12 [silmitasertib]
Outline: as §1

[2] = compound: O=C1NC(=O)C(c2cnc3ccccn23)=C1c1cn2c3c(cc(F)cc13)CN(C(=O)N1CCCCC1)CC2
Outline: as §1

entospletinib = compound: c1cn2cc(-c3ccc4cn[nH]c4c3)nc(Nc3ccc(N4CCOCC4)cc3)c2n1 [entospletinib]
Outline: as §1

Row | Target | log2 fold change [1] | log2 fold change (vorinostat) | log2 fold change (silmitasertib) | log2 fold change [2] | log2 fold change (entospletinib)
1 | LRRC59 (UniProt Q96AG4) | inactive: -0.012 | inactive: 0.124 | inactive: 0.004 | inactive: -0.008 | inactive: 0.005
2 | LPIN1 isoform 7 (UniProt Q14693) | inactive: 0.052 | active: -0.489 | inactive: -0.014 | inactive: 0.004 | inactive: -0.193
3 | LRPAP1 (UniProt P30533) | inactive: 0.014 | inactive: 0.117 | inactive: -0.005 | inactive: -0.035 | inactive: -0.032
4 | LEPR (UniProt P48357) | inactive: 0.034 | inactive: 0.037 | inactive: 0.031 | inactive: -0.015 | inactive: -0.152
5 | LMF2 (UniProt Q9BU23) | inactive: 0.008 | inactive: 0.108 | inactive: -0.053 | inactive: -0.086 | inactive: 0.025
6 | LRRC40 (UniProt Q9H9A6) | inactive: -0.005 | active: -0.315 | inactive: 0.027 | inactive: -0.043 | inactive: 0.02
7 | LONP2 (UniProt Q86WA8) | inactive: 0.049 | – | – | – | –
8 | LRWD1 (UniProt Q9UFC0) | inactive: -0.022 | active: -0.322 | inactive: -0.008 | inactive: -0.011 | inactive: 0.006
9 | LLPH (UniProt Q9BRT6) | inactive: -0.06 | inactive: 0.18 | inactive: -0.016 | inactive: -0.039 | inactive: -0.044
10 | LRPPRC (UniProt H7C3W8) | inactive: 0.792 | – | – | – | –

Single records, from the list above:
LONP2 (UniProt Q86WA8) in the list: log2 fold change [1]: inactive: 0.049
LEPR (UniProt P48357) in the list: log2 fold change [1]: inactive: 0.034; log2 fold change (vorinostat): inactive: 0.037; log2 fold change (silmitasertib): inactive: 0.031; log2 fold change [2]: inactive: -0.015; log2 fold change (entospletinib): inactive: -0.152
